# From publication PMC2747018
# No constants are given. Whether binding was seen depends on the method and setting. In cells and extracts the contact can be indirect. Here binding means that the protein was enriched with, or labelled near, the bait; the list need not be complete. A no says only that the protein was not detected with the bait.
# B1: U2 snRNP-B'', P08579 1-225 (protein)
# chain: MDIRPNHTIYINNMNDKIKKEELKRSLYALFSQFGHVVDIVALKTMKMRGQAFVIFKELGSSTNALRQLQGFPFYGKPMRIQYAKTDSDIISKMRGTFADKEKKKEKKKAKTVEQTATTTNKKPGQGTPNSANTQGNSTPNPQVPDYPPNYILFLNNLPEETNEMMLSMLFNQFPGFKEVRLVPGRHDIAFVEFENDGQAGAARDALQGFKITPSHAMKITYAKK
# Molecular target: U1-A protein of the native human U1 snRNP (human (endogenous in HeLa)), P09012
# Assay: affinity purification with mass spectrometry; U1 snRNP immunoprecipitated from HeLa nuclear extract with an affinity-purified antibody against U1-A aa 1-14 on Protein A Sepharose (IP150: 20 mM Hepes pH 7.9, 150 mM NaCl, 1.5 mM MgCl2, 0.5 mM DTT, 3 h, 4°C), eluted with the antigenic peptide, 5-20% glycerol gradient; proteins identified by proteomic analysis and LC-MS of the denatured complex; the complex holds U1 …
# Conditions: remark: other sources report otherwise
binder,measurement,value
B1,binding,no binding
